Structures can show the parent of a compound that is named as a salt. Out of some 5,300 compounds screened, about 130 (2.5%) showed an effect of 50% or more. This is one part of the list.
These molecules were tested on M. mycetomatis strain mm55. Details: primary screen, metabolic activity vs growth control; 96 h, 2 µM; inhibitor.

Structure (SMILES)	% viability [%]
CC(C)[C@@H](CS(=O)(=O)C(C)C)N1C(=O)[C@@](C)(CC(=O)O)C[C@H](c2cccc(Cl)c2)[C@H]1c1ccc(Cl)cc1 [ONC0000969, amg 232]	85.4
NCc1ccc(S(N)(=O)=O)cc1 [ONC0000477, mafenide hydrochloride]	60.8
CC[N+](CC)(CC)CCOc1cccc(OCC[N+](CC)(CC)CC)c1OCC[N+](CC)(CC)CC [ONC0000433, gallamine triethiodide]	90.82
CC(C)(C)NCC(O)c1cc(O)cc(O)c1 (centres unmarked) [ONC0000606, terbutaline hemisulfate]	93.54
NS(=O)(=O)c1cc2c(cc1Cl)NC(CC1CCCC1)NS2(=O)=O (centres unmarked) [ONC0002932, cyclopenthiazide]	58.19
CN(C)CCCCC(=O)Nc1ccc(NC(=S)NC(=O)c2ccc(C(C)(C)C)cc2)cc1 [ONC0004562, tenovin6]	74.44
C=C(c1ccc(C(=O)O)cc1)c1cc2c(cc1C)C(C)(C)CCC2(C)C [ONC0004806, bexarotene]	105.3
COc1cc2ncnc(Nc3ccc(F)c(Cl)c3)c2cc1OCCCN1CCOCC1 [ONC0001398, gefitinib]	84.81
CCOc1ccc(-c2ccc(Cn3c(CC(C)(C)C(=O)O)c(SC(C)(C)C)c4cc(OCc5ccc(C)cn5)ccc43)cc2)cn1 [ONC0002064, fiboflapon sodium]	68.44
CN1CCN(c2nc(C3=C(c4c[nH]c5ccccc45)C(=O)NC3=O)c3ccccc3n2)CC1 [ONC0005088, sotrastaurin aeb071]	54.81
c1ccc(C2CC2)c(OCC2=NCCN2)c1 [ONC0000039, cirazoline]	90.34
CC(C(=O)O)c1ccc(C(=O)c2cccs2)cc1 (centres unmarked) [ONC0005011, suprofen profenal]	82.43
CCOC(=O)CN1CCN(C(=O)/C=C/c2cc(OC)c(OC)c(OC)c2)CC1 [ONC0005388, cinepazet]	102.3
[O-][S+](c1ccccc1)c1ccc2nnnn2n1 (centres unmarked) [ONC0001706, ro1069920]	85.95
CCOc1ccc(NC(C)=O)cc1 [ONC0003348, phenacetin]	70.12
CN1CCC[C@@H]1CCO[C@](C)(c1ccccc1)c1ccc(Cl)cc1 [ONC0000347, clemastine fumarate]	104.8
CC[C@@H]([C@H](C)O)n1ncn(-c2ccc(N3CCN(c4ccc(OC[C@@H]5CO[C@@](Cn6cncn6)(c6ccc(F)cc6F)C5)cc4)CC3)cc2)c1=O [Posaconazole]	0.7626

Single entries from the results shown.
Value of C=C(c1ccc(C(=O)O)cc1)c1cc2c(cc1C)C(C)(C)CCC2(C)C [ONC0004806, bexarotene] under % viability [%]: 105.3
Value of NCc1ccc(S(N)(=O)=O)cc1 [ONC0000477, mafenide hydrochloride] under % viability [%]: 60.8

— publication PMC12670160, “A drug-repurposing screen of FDA- and EMA-approved drugs identifies two NF-κB inhibitors active against eumycetoma” (Journal of Antimicrobial Chemotherapy, 2025)
